PubChem BioAssay AID1508588 – Peter MacCallum Cancer Centre, 2020

Screen: 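Which gene losses make BRAF-mutant melanoma cells more responsive to vemurafenib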 (primary screen)
Cells: human WM266.4 melanoma cells (BRAF V600 mutant)
Reagents: siRNA pool against human genes, 40 nM
Timing: 96 h from transfection to read-out
Challenge: vemurafenib 300 nM (about IC25), added 48 h after transfection, for 48 h; comparison arm got DMSO vehicle only
Measured: 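Ratios to non-targeting siRNA for cell gain, counted as DAPI nuclei after minus before drug and averaged over two replicates, and for absorbance-read medium lactate per cell; both binned into fold-change classes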
Direction: cell gain with vemurafenib: higher = more cell gain than with non-targeting siRNA; lactate per cell with vemurafenib: higher = more lactate made per cell
Active means: 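a knock-down counts as enhancing when its fold-change classes with vehicle and with vemurafenib, taken together, show a stronger drug effect on cell gain or lactate per cell; exact class pairs not stated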
Meaning of the calls: active = enhances vemurafenib effect; inactive = no enhancement seen
Shown is one part, drawn at random, of about 18,000 deposited reagents. 790 of all reagents (4.4%) count as active. 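Calls rest on a combination of fold-change classes in drug and vehicle arms, not all shown here.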 A number with no mark means an inactive call.

gene,cell gain with vemurafenib,lactate per cell with vemurafenib
AGER (advanced glycosylation end-product specific receptor),0.3,1.27
NPBWR2 (neuropeptides B and W receptor 2),0.23,1.12
TNFRSF12A (TNF receptor superfamily member 12A),0.99,0.63
AHDC1 (AT-hook DNA binding motif containing 1),0.16,0.68
SOX18 (SRY-box transcription factor 18),0.53,1.03
KIAA2012,0.69,1.06
"LUC7L2 (LUC7 like 2, pre-mRNA splicing factor)",0.4,0.5
DYNLT1 (dynein light chain Tctex-type 1),0.64,1.47
"CGA (glycoprotein hormones, alpha polypeptide)",0.45,0.36
DLGAP3 (DLG associated protein 3),0.48,0.92
KRT35 (keratin 35),0.8,0.9
UXS1 (UDP-glucuronate decarboxylase 1),0.83,0.84
CCDC33 (coiled-coil domain containing 33),0.42,1.47
MPRIP (myosin phosphatase Rho interacting protein),0.89,1.02
YPEL5 (yippee like 5),0.52,0.5
SLC35B1,0.69,0.78
FZD6 (frizzled class receptor 6),0.99,1.19
ANKRD13B (ankyrin repeat domain 13B),0.8 (active),0.38
FAM229B (family with sequence similarity 229 member B),0.07,1.86
TRIM8 (tripartite motif containing 8),0.99,0.74
SECTM1 (secreted and transmembrane 1),0.67,1.15
CYTH1 (cytohesin 1),0.77,1.36
SRPRB (SRP receptor subunit beta),0.54,0.54
LY6G6D (lymphocyte antigen 6 family member G6D),0.88,0.92
DPEP1 (dipeptidase 1),0.67,0.55
OR5P3 (olfactory receptor family 5 subfamily P member 3),0.65,0.64
C3orf62 (chromosome 3 open reading frame 62),0.23,0.44
SYT15 (synaptotagmin 15),0.08,0.89
MAP7D2 (MAP7 domain containing 2),0.7,0.86
OR9A4 (olfactory receptor family 9 subfamily A member 4),0.34,1.26

Only “lactate per cell with vemurafenib” (3 entries from above):
SECTM1 (secreted and transmembrane 1): 1.15
CYTH1 (cytohesin 1): 1.36
SRPRB (SRP receptor subunit beta): 0.54

The list goes on.
gene,cell gain with vemurafenib,lactate per cell with vemurafenib
ITGA3 (integrin subunit alpha 3),0.35,1.27
ZP2 (zona pellucida glycoprotein 2),0.53,1.87
CCL16 (C-C motif chemokine ligand 16),1.12 (active),0.18
"ACTG2 (actin gamma 2, smooth muscle)",0.43,0.94
RCOR1 (REST corepressor 1),0.94 (active),0.18
CNTLN (centlein),0.33 (active),0.7
ALAS2 (5'-aminolevulinate synthase 2),0.12,0.6
INHBB (inhibin subunit beta B),0.87,1.24
LGALS7B (galectin 7B),0.74,1.9
PABIR2 (PABIR family member 2),1.01,0.98
PRKD2 (protein kinase D2),1.07,1.41
GOLGA6L9 (golgin A6 family like 9),0.78 (active),0.17
SFSWAP (splicing factor SWAP),0.16,0.52
ANAPC16 (anaphase promoting complex subunit 16),0.46,1.54
ZBED1 (zinc finger BED-type containing 1),0.82,0.86
RBX1 (ring-box 1),1.03,0.7
MMS19 (MMS19 cytosolic iron-sulfur assembly component),0.77,1.09
CARD19 (caspase recruitment domain family member 19),0.28,1.27
KLHL18 (kelch like family member 18),1.11,0.7
LHB (luteinizing hormone subunit beta),0.46,1.39
ADAT1 (adenosine deaminase tRNA specific 1),0.38,0.78
"B3GALT5 (beta-1,3-galactosyltransferase 5)",0.04,2.28
MREG (melanoregulin),0.63,0.88
JHY (junctional cadherin complex regulator),0.25,1.79
FAM135B (family with sequence similarity 135 member B),0.47,1.86
"B4GALT1 (beta-1,4-galactosyltransferase 1)",0.5,1.07
CST3 (cystatin C),0.18,1.19
